Measured values taken from the supplement of paper PMC11006884.
The list shows a part of the results, in another mix than the full data.

By UniProt entry, the sequences of proteins in these tests, tags left out. Where a name states a change or a piece, a line headed by the entry shows the natural chain unless it says otherwise.
UniProt Q9ULT8: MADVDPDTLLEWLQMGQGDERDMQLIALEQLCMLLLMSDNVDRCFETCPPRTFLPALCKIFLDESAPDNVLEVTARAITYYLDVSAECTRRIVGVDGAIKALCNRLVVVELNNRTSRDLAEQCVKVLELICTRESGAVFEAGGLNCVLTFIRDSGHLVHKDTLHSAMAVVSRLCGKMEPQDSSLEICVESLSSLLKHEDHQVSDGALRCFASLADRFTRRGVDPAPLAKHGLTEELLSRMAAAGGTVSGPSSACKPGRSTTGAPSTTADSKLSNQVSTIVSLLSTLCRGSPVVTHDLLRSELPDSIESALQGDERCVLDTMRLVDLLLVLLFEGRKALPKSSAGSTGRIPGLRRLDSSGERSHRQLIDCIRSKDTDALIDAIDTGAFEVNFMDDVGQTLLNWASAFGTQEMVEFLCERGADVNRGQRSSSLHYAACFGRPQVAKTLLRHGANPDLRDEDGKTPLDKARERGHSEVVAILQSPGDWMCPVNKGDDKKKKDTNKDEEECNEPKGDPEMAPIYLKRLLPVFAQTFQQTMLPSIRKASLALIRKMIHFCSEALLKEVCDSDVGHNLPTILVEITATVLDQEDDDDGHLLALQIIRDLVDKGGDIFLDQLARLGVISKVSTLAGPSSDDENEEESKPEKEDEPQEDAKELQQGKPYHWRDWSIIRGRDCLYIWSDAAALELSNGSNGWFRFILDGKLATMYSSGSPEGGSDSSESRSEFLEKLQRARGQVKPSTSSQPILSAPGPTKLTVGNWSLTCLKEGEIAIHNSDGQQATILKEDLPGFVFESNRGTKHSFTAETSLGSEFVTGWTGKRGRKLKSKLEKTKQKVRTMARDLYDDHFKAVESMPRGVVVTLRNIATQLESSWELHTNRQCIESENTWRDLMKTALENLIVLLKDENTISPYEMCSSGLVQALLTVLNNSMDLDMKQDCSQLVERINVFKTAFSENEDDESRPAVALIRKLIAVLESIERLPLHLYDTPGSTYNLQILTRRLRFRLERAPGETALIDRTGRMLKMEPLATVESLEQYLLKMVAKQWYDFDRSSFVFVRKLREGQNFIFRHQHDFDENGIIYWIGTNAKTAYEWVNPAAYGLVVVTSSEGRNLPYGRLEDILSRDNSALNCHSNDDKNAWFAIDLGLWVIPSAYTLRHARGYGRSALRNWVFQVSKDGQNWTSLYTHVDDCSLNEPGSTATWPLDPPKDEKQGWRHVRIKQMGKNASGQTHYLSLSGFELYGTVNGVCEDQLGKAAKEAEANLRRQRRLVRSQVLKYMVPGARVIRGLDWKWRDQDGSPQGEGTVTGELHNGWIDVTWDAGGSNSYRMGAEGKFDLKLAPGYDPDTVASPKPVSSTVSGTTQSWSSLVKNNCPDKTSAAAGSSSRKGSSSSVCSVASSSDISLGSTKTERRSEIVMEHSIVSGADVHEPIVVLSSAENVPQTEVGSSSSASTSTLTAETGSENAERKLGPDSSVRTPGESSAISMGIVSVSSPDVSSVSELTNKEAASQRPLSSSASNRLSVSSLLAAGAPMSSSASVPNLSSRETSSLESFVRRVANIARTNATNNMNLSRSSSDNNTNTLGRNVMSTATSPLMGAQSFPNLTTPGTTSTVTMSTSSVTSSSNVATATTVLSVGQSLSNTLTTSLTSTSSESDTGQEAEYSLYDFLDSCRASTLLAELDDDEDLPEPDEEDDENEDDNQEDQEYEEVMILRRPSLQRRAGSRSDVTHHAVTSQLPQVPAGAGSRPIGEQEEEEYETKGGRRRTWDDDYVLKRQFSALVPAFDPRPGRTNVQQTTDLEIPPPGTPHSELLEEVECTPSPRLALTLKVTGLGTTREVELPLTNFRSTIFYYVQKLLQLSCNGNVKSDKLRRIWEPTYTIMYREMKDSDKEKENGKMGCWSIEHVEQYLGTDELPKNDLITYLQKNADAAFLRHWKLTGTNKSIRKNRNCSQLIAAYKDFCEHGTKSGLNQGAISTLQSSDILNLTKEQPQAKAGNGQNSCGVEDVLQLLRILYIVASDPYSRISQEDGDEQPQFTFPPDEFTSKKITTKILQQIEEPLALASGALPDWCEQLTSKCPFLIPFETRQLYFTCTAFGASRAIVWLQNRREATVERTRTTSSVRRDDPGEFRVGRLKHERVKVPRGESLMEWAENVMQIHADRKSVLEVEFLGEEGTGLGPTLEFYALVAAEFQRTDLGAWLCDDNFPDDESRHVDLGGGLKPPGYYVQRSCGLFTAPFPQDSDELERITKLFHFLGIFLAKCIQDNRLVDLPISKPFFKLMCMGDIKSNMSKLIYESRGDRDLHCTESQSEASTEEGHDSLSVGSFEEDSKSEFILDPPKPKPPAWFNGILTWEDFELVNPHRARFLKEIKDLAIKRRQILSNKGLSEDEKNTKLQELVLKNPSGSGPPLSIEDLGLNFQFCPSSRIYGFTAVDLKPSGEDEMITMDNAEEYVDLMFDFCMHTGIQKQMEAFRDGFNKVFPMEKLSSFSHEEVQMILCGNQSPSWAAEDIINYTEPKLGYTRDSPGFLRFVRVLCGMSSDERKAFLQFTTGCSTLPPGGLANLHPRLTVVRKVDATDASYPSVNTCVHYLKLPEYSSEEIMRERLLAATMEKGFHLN
UniProt Q9UHD1: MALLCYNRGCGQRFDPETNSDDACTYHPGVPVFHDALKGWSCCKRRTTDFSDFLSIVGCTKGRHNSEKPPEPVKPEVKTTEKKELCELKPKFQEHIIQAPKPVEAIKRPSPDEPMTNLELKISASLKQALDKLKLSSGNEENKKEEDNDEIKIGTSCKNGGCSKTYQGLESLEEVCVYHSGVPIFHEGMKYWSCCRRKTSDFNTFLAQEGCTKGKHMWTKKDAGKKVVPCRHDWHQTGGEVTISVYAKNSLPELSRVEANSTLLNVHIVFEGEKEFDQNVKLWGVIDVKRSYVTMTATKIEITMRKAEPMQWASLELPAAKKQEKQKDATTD
UniProt Q9ULK4: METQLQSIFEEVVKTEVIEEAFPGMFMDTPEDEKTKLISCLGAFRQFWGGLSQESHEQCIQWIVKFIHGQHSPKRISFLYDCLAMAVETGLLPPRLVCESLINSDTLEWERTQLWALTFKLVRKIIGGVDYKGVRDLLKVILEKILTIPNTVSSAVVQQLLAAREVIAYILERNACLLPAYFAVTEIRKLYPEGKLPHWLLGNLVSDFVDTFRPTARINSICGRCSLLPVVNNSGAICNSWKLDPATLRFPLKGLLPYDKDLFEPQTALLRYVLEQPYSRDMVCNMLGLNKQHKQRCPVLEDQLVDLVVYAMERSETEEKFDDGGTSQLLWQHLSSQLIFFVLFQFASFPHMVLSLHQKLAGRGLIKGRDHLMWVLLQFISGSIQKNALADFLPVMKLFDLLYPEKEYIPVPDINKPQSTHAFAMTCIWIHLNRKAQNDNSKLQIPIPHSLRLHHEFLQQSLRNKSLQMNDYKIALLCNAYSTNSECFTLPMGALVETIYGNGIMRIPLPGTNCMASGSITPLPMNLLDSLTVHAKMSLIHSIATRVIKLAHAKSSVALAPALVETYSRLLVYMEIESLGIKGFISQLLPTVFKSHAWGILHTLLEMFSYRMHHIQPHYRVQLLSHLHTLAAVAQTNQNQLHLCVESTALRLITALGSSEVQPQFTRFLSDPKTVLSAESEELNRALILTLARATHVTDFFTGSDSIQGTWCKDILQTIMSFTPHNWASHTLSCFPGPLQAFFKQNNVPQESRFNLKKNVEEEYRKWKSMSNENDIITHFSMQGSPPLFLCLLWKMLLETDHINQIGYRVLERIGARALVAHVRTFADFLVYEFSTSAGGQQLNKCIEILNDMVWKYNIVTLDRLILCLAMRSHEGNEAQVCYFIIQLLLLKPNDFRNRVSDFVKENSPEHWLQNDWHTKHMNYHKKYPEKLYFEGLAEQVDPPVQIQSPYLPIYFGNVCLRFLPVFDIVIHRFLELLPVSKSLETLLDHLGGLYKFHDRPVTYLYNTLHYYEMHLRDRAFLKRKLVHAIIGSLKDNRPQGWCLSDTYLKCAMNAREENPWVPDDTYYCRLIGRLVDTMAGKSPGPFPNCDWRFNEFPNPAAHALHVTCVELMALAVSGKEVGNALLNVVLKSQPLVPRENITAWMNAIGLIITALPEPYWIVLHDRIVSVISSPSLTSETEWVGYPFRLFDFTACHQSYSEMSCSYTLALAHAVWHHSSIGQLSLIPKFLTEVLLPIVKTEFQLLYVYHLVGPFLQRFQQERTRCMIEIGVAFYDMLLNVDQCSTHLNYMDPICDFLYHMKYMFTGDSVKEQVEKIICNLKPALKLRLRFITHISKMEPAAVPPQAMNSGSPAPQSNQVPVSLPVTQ
UniProt Q9UL15: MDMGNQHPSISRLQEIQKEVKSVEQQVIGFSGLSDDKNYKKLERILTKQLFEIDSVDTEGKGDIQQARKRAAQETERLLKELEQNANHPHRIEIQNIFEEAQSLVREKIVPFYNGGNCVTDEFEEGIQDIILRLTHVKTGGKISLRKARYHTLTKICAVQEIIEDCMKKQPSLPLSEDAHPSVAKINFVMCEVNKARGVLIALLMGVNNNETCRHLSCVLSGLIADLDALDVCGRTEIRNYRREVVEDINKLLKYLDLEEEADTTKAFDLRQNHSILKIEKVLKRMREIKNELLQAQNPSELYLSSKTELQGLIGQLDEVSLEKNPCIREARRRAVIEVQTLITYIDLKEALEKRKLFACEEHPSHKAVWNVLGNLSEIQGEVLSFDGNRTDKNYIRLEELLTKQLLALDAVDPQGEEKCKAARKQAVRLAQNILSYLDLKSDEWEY
UniProt Q9ULC4: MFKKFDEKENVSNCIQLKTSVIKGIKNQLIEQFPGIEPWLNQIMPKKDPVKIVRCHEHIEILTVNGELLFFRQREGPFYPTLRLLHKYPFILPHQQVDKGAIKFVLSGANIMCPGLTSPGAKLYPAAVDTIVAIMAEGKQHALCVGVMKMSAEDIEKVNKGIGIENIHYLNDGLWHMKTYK
UniProt Q9ULU4: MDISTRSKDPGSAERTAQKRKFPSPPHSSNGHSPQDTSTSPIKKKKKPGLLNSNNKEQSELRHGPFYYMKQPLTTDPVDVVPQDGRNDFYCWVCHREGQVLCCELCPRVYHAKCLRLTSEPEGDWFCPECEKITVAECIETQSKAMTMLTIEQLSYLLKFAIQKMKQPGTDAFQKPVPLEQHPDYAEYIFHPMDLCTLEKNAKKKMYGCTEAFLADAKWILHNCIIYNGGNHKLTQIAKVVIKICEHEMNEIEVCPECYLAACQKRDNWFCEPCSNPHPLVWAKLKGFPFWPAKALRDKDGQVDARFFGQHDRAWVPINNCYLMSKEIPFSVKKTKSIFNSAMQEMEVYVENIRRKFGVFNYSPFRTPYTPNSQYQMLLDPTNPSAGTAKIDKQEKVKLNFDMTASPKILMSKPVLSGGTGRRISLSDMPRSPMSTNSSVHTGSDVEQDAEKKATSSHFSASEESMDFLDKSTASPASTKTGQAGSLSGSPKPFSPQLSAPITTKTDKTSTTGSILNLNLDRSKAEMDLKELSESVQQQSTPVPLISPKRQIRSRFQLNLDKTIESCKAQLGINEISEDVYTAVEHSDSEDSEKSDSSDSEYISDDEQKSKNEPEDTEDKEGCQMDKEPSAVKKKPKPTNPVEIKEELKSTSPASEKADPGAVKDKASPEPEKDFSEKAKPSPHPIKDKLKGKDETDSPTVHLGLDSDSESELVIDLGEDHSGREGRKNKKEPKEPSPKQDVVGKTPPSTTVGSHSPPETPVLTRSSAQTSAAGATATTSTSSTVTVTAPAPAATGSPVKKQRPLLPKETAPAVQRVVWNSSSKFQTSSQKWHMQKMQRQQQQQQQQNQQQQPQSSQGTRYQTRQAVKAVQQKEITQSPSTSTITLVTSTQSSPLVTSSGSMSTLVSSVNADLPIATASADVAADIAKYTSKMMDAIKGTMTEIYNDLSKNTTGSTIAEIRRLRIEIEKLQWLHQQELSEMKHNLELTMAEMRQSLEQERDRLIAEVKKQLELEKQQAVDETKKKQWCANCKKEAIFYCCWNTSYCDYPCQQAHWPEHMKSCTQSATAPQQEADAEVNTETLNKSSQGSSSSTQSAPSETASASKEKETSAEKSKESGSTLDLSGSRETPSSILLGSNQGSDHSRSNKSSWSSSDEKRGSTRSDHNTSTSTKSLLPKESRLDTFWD
UniProt Q9UN37: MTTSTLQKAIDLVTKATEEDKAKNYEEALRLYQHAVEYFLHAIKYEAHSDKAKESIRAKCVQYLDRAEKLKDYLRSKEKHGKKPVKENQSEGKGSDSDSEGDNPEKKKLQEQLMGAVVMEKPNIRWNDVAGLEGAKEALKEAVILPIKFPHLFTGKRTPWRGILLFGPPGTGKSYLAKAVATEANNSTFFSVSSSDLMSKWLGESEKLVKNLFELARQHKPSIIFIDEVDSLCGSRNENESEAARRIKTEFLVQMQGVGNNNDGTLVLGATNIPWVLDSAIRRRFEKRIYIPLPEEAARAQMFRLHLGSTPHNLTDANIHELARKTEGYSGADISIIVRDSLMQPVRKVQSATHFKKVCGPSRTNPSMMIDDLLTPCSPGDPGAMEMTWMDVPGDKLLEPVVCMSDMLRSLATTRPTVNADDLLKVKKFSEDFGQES

Compound: COC(=O)C#Cc1ccccc1 [methyl 3-phenylpropiolate]
Assay: log2 ratio of iodoacetamide-alkyne labeling of the cysteine site, DMSO over compound (competition); higher = stronger covalent engagement of the cysteine by the compound, active = 1 or more
Details: 500 µM; treatment time 1 h; system: HEK293T cell lysate
In short: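 Reporter intensities give each cysteine's log2 competition ratio as the mean of control channels over the mean of compound channels. The samples were HEK293T lysate (2 mg/mL) given vehicle or electrophile (500 µM, 1 h, ambient temperature), then iodoacetamide alkyne (1 h), followed by click coupling to sCIP-TMT reagents, pooling, trypsin digestion overnight at 37 °C, streptavidin enrichment, acid elution, Orbitrap Eclipse LC-MS/MS with FAIMS and FragPipe quantification. Duplicate channels and three replicates were run, and cysteines quantified in only one replicate were discarded.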

log2 ratio of iodoacetamide-alkyne labeling, active:
HEG1 C1360 (UniProt Q9ULI3) 1.36

log2 ratio of iodoacetamide-alkyne labeling, inactive:
SH3GLB1 C121 (UniProt Q9Y371) 0.455
NISCH C185 (UniProt Q9Y2I1) 0.0959
HECTD1 C2224 (UniProt Q9ULT8) 0.302
VDAC3 C36 (UniProt Q9Y277) 0.628
STRAP C340 (UniProt Q9Y3F4) -0.0306
CHORDC1 C5 (UniProt Q9UHD1) -0.0481
MED23 C1069 (UniProt Q9ULK4) 0.655
USP24 C172 (UniProt Q9UPU5) 0.54
RUVBL1 C94 (UniProt Q9Y265) 0.0602
SAP30BP C172 (UniProt Q9UHR5) 0.146
KIDINS220 C412 (UniProt Q9ULH0) 0.0082
UniProt Q9UHD8_C531 0.77
MTMR6 C214 (UniProt Q9Y217) -0.0163
CPSF3 C527 (UniProt Q9UKF6) 0.315
KIDINS220 C867 (UniProt Q9ULH0) 0.436
BAG5 C157 (UniProt Q9UL15) 0.444
DCTN4 C30 (UniProt Q9UJW0) -0.0368
MCTS1 C14 (UniProt Q9ULC4) 0.00281
UniProt Q9Y448_C296 -0.0325
GPATCH8 C569 (UniProt Q9UKJ3) 0.815
TBC1D24 C89 (UniProt Q9ULP9) -0.0393
MED13 C402 (UniProt Q9UHV7) 0.619
ZMYND8 C196 (UniProt Q9ULU4) -0.0132
VPS4A C359 (UniProt Q9UN37) 0.151
MRPS18C C90 (UniProt Q9Y3D5) 0.167
STOML2 C167 (UniProt Q9UJZ1) -0.163
TRIM33 C461 (UniProt Q9UPN9) 0.461
ICE1 C1616 (UniProt Q9Y2F5) 0.593
UniProt Q9UKA8_C239 -0.0281
LUC7L2 C59 (UniProt Q9Y383) -0.0608
ANAPC5 C86 (UniProt Q9UJX4) 0.467
MBD1 C525 (UniProt Q9UIS9) 0.358
VAV3 C44 (UniProt Q9UKW4) -0.271
MYO6 C1102 (UniProt Q9UM54) 0.234
HECTD1 C2415 (UniProt Q9ULT8) 0.0611

2 entries drawn at random from those above:
log2 ratio of iodoacetamide-alkyne labeling, inactive:
ANAPC5 C86 (UniProt Q9UJX4) 0.467
ICE1 C1616 (UniProt Q9Y2F5) 0.593
